Experiment: Inhibition of HAP dissolution (calcium in supernatant by ICP)
Format: physicochemical
Conditions: compound 1 mM; supersaturated calcium phosphate, 0.05 M Tris pH 7.4, 37° C., 24 h
Description: As a result, HAP affinity tests are the most common in vitro tests for bone-seeking properties of new compounds. The current, novel, BP-containing monomers and nanoparticles were assayed for inhibition of HAP dissolution, in comparison to alendronate.
The test based on a slightly modified method of Francis et al. (Francis, M. D. The inhibition of calcium hydroxyapatite crystal growth by polyphosphonates and polyphosphates. Calcif Tissue Res 1969, 3, 151-162). The extent of HAP formation in the presence of inhibitors was studied in supersaturated calcium phosphate solutions.
The final concentration of calcium (CaCl2.2H2O) and phosphate (K2HPO4) ions in the incubation solutions was 3.87 mM and 2.32 mM, respectively, yielding a molar ratio of [Ca]/[PO4]=1.67, as in hydroxyapatite (HAP). Each salt solution was prepared in 0.05 M Tris buffer, pH 7.4. The tested BP compound (1 mM) was dissolved in […]. 5 ml of 7.74 mM CaCl2.2H2O solution containing the BP compound and 5 ml of the 4.64 mM K2HPO4 were mixed in borosilicate glass vials (acid and acetone washed). The vials were then placed in a shaker at 37° C. for 24 h. The vials contents were centrifuged (4 min, 4000 rpm) and the supernatants were then separated and analyzed for calcium concentration by ICP Analysis.

In the case of `NCCCC(O)(P(=O)(O)O)P(=O)(O)O` [Alendronate, reference compound], the “Calcium ions concentration in filtrate (% of initial concentration)” value is reported as 35 % of initial concentration.
